Results published in article doi:10.1101/2020.02.13.946640 (bioRxiv, 2020).
Where two headings read alike, the source gives them in different places. Results are given in words; binding and its absence hold for the method and conditions named. Some binding calls cover weakened binding; strength is not graded here.

Columns and labels:
[1] = target: T1, a subunit of Thermus thermophilus V/A-ATPase (Thermus thermophilus) (UniProt Q5SIT6); experiment: cryo-EM structure
T1 sequence: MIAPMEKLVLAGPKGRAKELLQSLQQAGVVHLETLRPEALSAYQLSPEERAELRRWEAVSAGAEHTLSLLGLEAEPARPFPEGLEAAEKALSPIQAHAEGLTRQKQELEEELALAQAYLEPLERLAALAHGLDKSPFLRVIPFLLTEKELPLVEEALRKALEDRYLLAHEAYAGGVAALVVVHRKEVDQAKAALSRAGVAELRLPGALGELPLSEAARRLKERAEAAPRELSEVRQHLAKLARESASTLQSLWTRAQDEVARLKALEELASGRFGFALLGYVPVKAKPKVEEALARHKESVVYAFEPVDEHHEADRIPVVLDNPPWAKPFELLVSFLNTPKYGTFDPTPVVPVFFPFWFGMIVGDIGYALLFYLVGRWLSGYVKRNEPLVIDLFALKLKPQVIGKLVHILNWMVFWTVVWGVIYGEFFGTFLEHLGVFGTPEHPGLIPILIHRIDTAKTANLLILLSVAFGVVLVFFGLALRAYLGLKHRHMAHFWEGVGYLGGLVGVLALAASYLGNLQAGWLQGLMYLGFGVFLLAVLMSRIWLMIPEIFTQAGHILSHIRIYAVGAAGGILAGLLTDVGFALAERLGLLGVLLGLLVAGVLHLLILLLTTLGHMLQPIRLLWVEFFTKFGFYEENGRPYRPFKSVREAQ

[2] = target: T1, a subunit of Thermus thermophilus V/A-ATPase (Thermus thermophilus); experiment: cryo-EM structure; remark: listed apart in the source

binding [1]: binds
binding [2]: binds
B1: EG peripheral stalk of Thermus thermophilus V/A-ATPase (complex, UniProt P74901 1-188; Q5SIT5 1-120)
chain 1: MSKLEAILSQEVEAEIQALLQEAEAKAEAVKREAEEKAKALLQARERALEAQYRAALRRAESAGELLVATARTQARGEVLEEVRRRVREALEALPQKPEWPEVVRKLALEALEALPGAKALVANPEDLPHLEALARERGVELQAEPALRLGVRAVGAEGKTQVENSLLARLDRAWDALSSKVAQALWG
chain 2: MTGGLVLNAISRAGGAMGGLGLIKSLAEKEKQLLERLEAAKKEAEERVKRAEAEAKALLEEAEAKAKALEAQYRERERAETEALLARYRERAEAEAKAVREKAMARLDEAVALVLKEVLP
